The assay relates to activity-regulated Gln/MeAIB transport (SNAT activity) in hippocampal neurons. Briefly: Activity-regulated (spontaneous, 4-AP- or K+-stimulated) [14C]-MeAIB transport in primary hippocampal neurons. It counts as cell-based, rat. The conditions noted are these: screens; 10 μM; GABA 2 mM.

The values that follow come from US11974988B2, “Neuroprotective compositions and methods of using the same” (The Board of Supervisors of Louisiana State Univer …, priority 2018, dated 2024).

For the compound `NCCCC(=O)O` [GABA], the “inhibition of spontaneous activity-regulated 14C-MeAIB transport, in words” value was “blocked”.
